Measured values published in PMC10128955.
Results are given in words; binding and its absence hold for the method and conditions named. Binding calls can cover weak binding; strength is not graded here. For some assays here: Binding seen in cells or lysates may run through a third protein. For some assays here: Tags and fused reporters may be left off the sequences shown.

T1: truncated LAX1 fragment (1-159 aa), pGBK-LAX1(1-159) (Oryza sativa Japonica variety Zhonghua 11 (ZH11)) (UniProt Q7XAQ6)
T1 sequence: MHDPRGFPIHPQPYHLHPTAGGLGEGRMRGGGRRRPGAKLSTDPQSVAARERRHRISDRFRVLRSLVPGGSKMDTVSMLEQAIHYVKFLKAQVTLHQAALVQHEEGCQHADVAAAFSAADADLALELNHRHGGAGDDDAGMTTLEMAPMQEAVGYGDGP

T2: truncated LAX1 (31-99 aa) containing the bHLH domain (41-89 aa), pGBK-LAX1(31-99) (Oryza sativa Japonica variety Zhonghua 11 (ZH11)) (UniProt Q7XAQ6)
T2 sequence: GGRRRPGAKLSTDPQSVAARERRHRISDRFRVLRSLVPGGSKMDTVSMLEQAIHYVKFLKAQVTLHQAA

T3: cCFP-LAX1 (Oryza sativa Japonica variety Zhonghua 11 (ZH11)) (UniProt Q7XAQ6)
T3 sequence: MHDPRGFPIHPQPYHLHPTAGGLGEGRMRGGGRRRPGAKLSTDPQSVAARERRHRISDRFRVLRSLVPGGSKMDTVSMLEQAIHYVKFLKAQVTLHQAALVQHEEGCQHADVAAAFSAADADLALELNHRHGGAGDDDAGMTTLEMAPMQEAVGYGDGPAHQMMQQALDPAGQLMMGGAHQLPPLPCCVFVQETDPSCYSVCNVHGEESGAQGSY


Legend:
[1] = biological target: T1, truncated LAX1 fragment (1-159 aa), pGBK-LAX1(1-159) (Oryza sativa Japonica variety Zhonghua 11 (ZH11)); test: two-hybrid; Matchmaker Gold system, AH109; LAX1 fragments in pGBK-T7 as bait, bHLH proteins in pGAD-T7 as prey; growth of dilutions on selective medium
[2] = biological target: T2, truncated LAX1 (31-99 aa) containing the bHLH domain (41-89 aa), pGBK-LAX1(31-99) (Oryza sativa Japonica variety Zhonghua 11 (ZH11)); test: as above
[3] = biological target: T3, cCFP-LAX1 (Oryza sativa Japonica variety Zhonghua 11 (ZH11)); test: split reporter; BiFC in rice protoplasts; cCFP-LAX1 with nCFP fusions; incubation overnight at 23°C; CFP fluorescence in nuclei
[4] = biological target: His-OsbHLH068 (Oryza sativa Japonica variety Zhonghua 11 (ZH11)); test: pull-down; bacterial lysates of MBP-LAX1 and His-OsbHLH067 or His-OsbHLH068 mixed; Ni Sepharose, 4°C, 60 min; washed with TGH buffer (150 mM NaCl, 1% Triton X-100); immunoblot with anti-MBP
[5] = biological target: His-OsbHLH067 (Oryza sativa Japonica variety Zhonghua 11 (ZH11)); test: as above
[6] = biological target: GST-OsbHLH069 (Oryza sativa Japonica variety Zhonghua 11 (ZH11)); test: pull-down; bacterial lysates of MBP-LAX1 and GST-OsbHLH069 mixed; glutathione sepharose, 4°C, 60 min; washed with TGH buffer (150 mM NaCl, 1% Triton X-100); immunoblot with anti-MBP

Molecule	binding [1]	binding [2]	binding [3]	other results
OsbHLH067 (prey in pGAD-T7)	binds	binds	–	–
OsbHLH067-nCFP	–	–	binds	–
OsbHLH068 (prey in pGAD-T7)	binds	binds	–	–
OsbHLH068-nCFP	–	–	binds	–
MBP-LAX1 (protein, UniProt Q7XAQ6 1-215) MHDPRGFPIHPQPYHLHPTAGGLGEGRMRGGGRRRPGAKLSTDPQSVAARERRHRISDRFRVLRSLVPGGSKMDTVSMLEQAIHYVKFLKAQVTLHQAALVQHEEGCQHADVAAAFSAADADLALELNHRHGGAGDDDAGMTTLEMAPMQEAVGYGDGPAHQMMQQALDPAGQLMMGGAHQLPPLPCCVFVQETDPSCYSVCNVHGEESGAQGSY	–	–	–	binding [4]: binds; binding [5]: binds; binding [6]: binds

Continued, in another order:

binding [1]	binding [2]	binding [3]	Molecule	other results
binds	binds	–	OsbHLH069 (prey in pGAD-T7)	–
–	–	binds	OsbHLH069-nCFP	–
no binding	no binding	–	pGAD-OsbHLH003	–
